Laboratory results: PubChem BioAssay AID1259269 (Sanger Institute, 2017)

Assay: 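Confirm siRNA and drug combinations that act together against HCC2998 cells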 (follow-up of hits)
Cell system: HCC2998 human colorectal cancer cells
Knock-down reagent: single siRNA against human genes
Challenge: anchor drug BYL719 1 µM, cetuximab 5 µg/ml or trametinib 10 nM; DMSO vehicle as comparison arm
Measured: 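Survival versus non-targeting control siRNA, replicate means, under DMSO or drug (BYL719 1 µM, cetuximab 5 µg/ml, trametinib 10 nM) and a drug synergy score, higher meaning stronger synthetic lethality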
Scale: synergy score with BYL719 and synergy score with cetuximab and synergy score with trametinib: higher = stronger synthetic lethal effect with the drug
Hit rule: 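a gene counts as active when any of the three drug arms gives an averaged synergy above 0.10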
Calls: active = synergy with at least one drug; inactive = no synergy with any drug
This is a random part of 160 reagents tested. 108 of them (68%) were called active. 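Viability cannot exceed 1; how synergy scores were computed is not described.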 Entries without a mark were called inactive. The numbers tell different reagents against one gene apart. Further read-outs or replicates are left out here. No sequences are given here. Not given: the amount of reagent, the time to read-out.

With knock-down of SF3B1 (splicing factor 3b subunit 1) #1, the record shows synergy score with BYL719 = -0.0436; synergy score with cetuximab -0.0535; synergy score with trametinib -0.0414.
Silencing of SF3B1 (splicing factor 3b subunit 1) #2 came out at: synergy score with BYL719 = -0.023; synergy score with cetuximab -0.0471; synergy score with trametinib -0.0188.
SF3B1 (splicing factor 3b subunit 1) #3 showed synergy score with BYL719 = 0.0457; synergy score with cetuximab -0.0971; synergy score with trametinib -0.0413.
With knock-down of SF3B1 (splicing factor 3b subunit 1) #4, the screen gave synergy score with BYL719 = -0.0104; synergy score with cetuximab -0.0414; synergy score with trametinib 0.0145.
PINK1 (PTEN induced kinase 1) #1 showed synergy score with BYL719 = -0.116; synergy score with cetuximab 0; synergy score with trametinib -0.0565.
Against PINK1 (PTEN induced kinase 1) #2 the deposit lists synergy score with BYL719 = 0.0715 (active); synergy score with cetuximab 0.0503; synergy score with trametinib 0.265.
After knock-down of PINK1 (PTEN induced kinase 1) #3, the record shows synergy score with BYL719 = 0.105 (active); synergy score with cetuximab 0.0416; synergy score with trametinib 0.291.
PINK1 (PTEN induced kinase 1) #4 scored synergy score with BYL719 = -0.181 (active); synergy score with cetuximab -0.139; synergy score with trametinib 0.254.
Knock-down of PAK1 (p21 (RAC1) activated kinase 1) #1 gave: synergy score with BYL719 = -0.299 (active); synergy score with cetuximab 0.048; synergy score with trametinib 0.104.
PAK1 (p21 (RAC1) activated kinase 1) #2 gave synergy score with BYL719 = -0.0515 (active); synergy score with cetuximab 0.0704; synergy score with trametinib 0.105.
Silencing of PAK1 (p21 (RAC1) activated kinase 1) #3 gave: synergy score with BYL719 = -0.0571 (active); synergy score with cetuximab -0.00836; synergy score with trametinib 0.124.
Silencing of PAK1 (p21 (RAC1) activated kinase 1) #4 came out at: synergy score with BYL719 = 0.161 (active); synergy score with cetuximab 0.287; synergy score with trametinib 0.197.

As entered above:
For “synergy score with trametinib”, PAK1 (p21 (RAC1) activated kinase 1) #4 shows 0.197 (active)
PINK1 (PTEN induced kinase 1) #1, synergy score with cetuximab → 0
